Results are given in words; binding and its absence hold for the method and conditions named. Some entries that bind do so weakly or less than the wild type.
Experiments:
[1] = biological target: ICAM-5 D1–D4 fragment (the four most N-terminal glycosylated IgSF domains of intercellular cell adhesion molecule-5) (UniProt Q9UMF0); assay: crystal structure; IC5-4D crystals, space group P4_(3)22; 10% PEG 4000, 100 mM Tris–HCl pH 8.5, 21°C; contacts between symmetry-related molecules analysed with PISA; 3.7 Å; both purified
[2] = biological target: ICAM-5 D1–D4 fragment (the four most N-terminal glycosylated IgSF domains of intercellular cell adhesion molecule-5) (UniProt Q9UMF0); assay: crystal structure; IC5-4D crystals, space group R3; 10% PEG 4000, 100 mM sodium acetate pH 5.6, 21°C; contacts between symmetry-related molecules analysed with PISA; 3.7 Å; both purified
[3] = biological target: ICAM-5 D1–D4 fragment (the four most N-terminal glycosylated IgSF domains of intercellular cell adhesion molecule-5) (UniProt Q9UMF0); assay: crystal structure; IC5-4D crystals, space group P2_(1); 10% PEG 4000, 100 mM Tris–HCl pH 8.5, microseeding, 21°C; contacts between symmetry-related molecules analysed with PISA; 2.5 Å; both purified

binding [1]: binds
binding [2]: binds
binding [3]: binds
B1: ICAM-5 D1–D4 fragment (the four most N-terminal glycosylated IgSF domains of intercellular cell adhesion molecule-5) (domain or fragment, UniProt Q9UMF0 32-409)
chain: EPFWADLQPRVAFVERGGSLWLNCSTNCPRPERGGLETSLRRNGTQRGLRWLARQLVDIREPETQPVCFFRCARRTLQARGLIRTFQRPDRVELMPLPPWQPVGENFTLSCRVPGAGPRASLTLTLLRGAQELIRRSFAGEPPRARGAVLTATVLARREDHGANFSCRAELDLRPHGLGLFENSSAPRELRTFSLSPDAPRLAAPRLLEVGSERPVSCTLDGLFPASEARVYLALGDQNLSPDVTLEGDAFVATATATASAEQEGARQLVCNVTLGGENRETRENVTIYSFPAPLLTLSEPSVSEGQMVTVTCAAGAQALVTLEGVPAAVPGQPAQLQLNATENDDRRSFFCDATLDVDGETLIKNRSAELRVLYAPR
modifications: N-linked glycans (among others at Asn23, Asn239, Asn272, Asn285)

— article PMC4089487
